Test results published in article PMC6007958, “Identification, characterization and application of a new peptide against anterior gradient homolog 2 (AGR2)” (Oncotarget, 2018).
These are yes or no findings as the source states them, for the method shown. Some entries that bind do so weakly or less than the wild type.

Amino acid sequences for entries named in this document (tags omitted). Residues count along the entry.
UniProt O95994, residues 21-175: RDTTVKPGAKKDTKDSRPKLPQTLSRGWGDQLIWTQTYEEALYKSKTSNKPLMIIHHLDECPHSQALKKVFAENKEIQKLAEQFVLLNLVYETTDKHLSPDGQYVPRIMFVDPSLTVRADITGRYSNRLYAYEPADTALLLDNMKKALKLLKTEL

B1: AGR3 (recombinant anterior gradient protein 3, amino acids 4-166) (protein, UniProt Q8TD06 4-166)
chain: HSALGLCLLLVTVSSNLAIAIKKEKRPPQTLSRGWGDDITWVQTYEEGLFYAQKSKKPLMVIHHLEDCQYSQALKKVFAQNEEIQEMAQNKFIMLNLMHETTDKNLSPDGQYVPRIMFVDPSLTVRADIAGRYSNRLYTYEPRDLPLLIENMKKALRLIQSEL

Tests used:
H10 peptide (biotin-…) [1] = molecular target: T1, H10 peptide (biotin-…); experiment: ELISA; biotinylated H10 on streptavidin coated plates; filtered spent media of MCF-7 or 22Rv1 cells (48 h, 10% FBS); detected with anti-AGR2 antibody; only the target purified
T1 sequence (peptide, biotin (N-Terminal)): GGGSGMKMQVRIYLV

H10 peptide (biotin-…) [2] = molecular target: T1, H10 peptide (biotin-…); experiment: SPR; immobilised H10; AGR2 and AGR3 injected at 200 nM; both purified

Molecule | binding (H10 peptide (biotin-…) [1]) | binding (H10 peptide (biotin-…) [2])
extracellular AGR2 (eAGR2) in spent media of cancer cell lines (from UniProt O95994 21-175) | binds | –
B1 | – | no binding (tested: 200 nM)
